Measured values: patent publication US20050282752A1
These are yes or no findings as the source states them, for the method shown. Some entries that bind do so weakly or less than the wild type.

By UniProt entry, the sequences of proteins in these tests, tags left out. Where a name states a change or a piece, a line headed by the entry shows the natural chain unless it says otherwise. Residues count along the entry.
UniProt P14778, residues 18-336: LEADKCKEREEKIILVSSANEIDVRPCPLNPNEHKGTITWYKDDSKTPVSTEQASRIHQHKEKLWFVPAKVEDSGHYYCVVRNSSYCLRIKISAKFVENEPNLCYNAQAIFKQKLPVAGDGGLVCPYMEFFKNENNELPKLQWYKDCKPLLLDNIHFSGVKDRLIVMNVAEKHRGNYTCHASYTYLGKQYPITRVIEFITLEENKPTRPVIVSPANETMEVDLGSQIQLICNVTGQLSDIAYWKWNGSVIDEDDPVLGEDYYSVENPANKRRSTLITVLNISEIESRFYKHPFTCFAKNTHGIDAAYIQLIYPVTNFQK
UniProt P18510: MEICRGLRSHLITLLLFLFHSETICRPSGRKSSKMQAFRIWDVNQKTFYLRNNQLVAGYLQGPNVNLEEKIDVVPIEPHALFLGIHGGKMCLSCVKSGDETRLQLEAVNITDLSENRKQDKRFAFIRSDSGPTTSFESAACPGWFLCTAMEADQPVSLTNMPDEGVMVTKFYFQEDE

Key:
[1] = target: biotinylated human IL-1RI (human) (UniProt P14778); assay: ECL competition, IL-1 signaling complex formation assay of Example 3
[2] = target: biotinylated human IL-1RI (human) (UniProt P14778); assay: ECL competition, IL-1 signaling complex formation assay: IL-1RI-coated beads, IL-1β as competitor, IL-1RAcP-Fc-TAG for detection

Row | binding [1] | binding [2] | Substance
1 | binds | binds | IL-1ra R97D mutant protein (from UniProt P18510 26-177) (ligand)
2 | binds | binds | IL-1ra wild-type protein (human recombinant interleukin-1 receptor antagonist having the sequence of SEQ ID NO: 5) (from UniProt P18510 26-177) (ligand)
3 | binds | binds | IL-1ra K93A mutant protein (from UniProt P18510 26-177) (ligand)
